# Results taken from PubChem BioAssay AID720504 (National Center for Advancing Translational Sciences (NCATS), 2013).
# The chains behind the UniProt entries cited, without tags or fusion partners.
# UniProt P53350, whole entry, looked up: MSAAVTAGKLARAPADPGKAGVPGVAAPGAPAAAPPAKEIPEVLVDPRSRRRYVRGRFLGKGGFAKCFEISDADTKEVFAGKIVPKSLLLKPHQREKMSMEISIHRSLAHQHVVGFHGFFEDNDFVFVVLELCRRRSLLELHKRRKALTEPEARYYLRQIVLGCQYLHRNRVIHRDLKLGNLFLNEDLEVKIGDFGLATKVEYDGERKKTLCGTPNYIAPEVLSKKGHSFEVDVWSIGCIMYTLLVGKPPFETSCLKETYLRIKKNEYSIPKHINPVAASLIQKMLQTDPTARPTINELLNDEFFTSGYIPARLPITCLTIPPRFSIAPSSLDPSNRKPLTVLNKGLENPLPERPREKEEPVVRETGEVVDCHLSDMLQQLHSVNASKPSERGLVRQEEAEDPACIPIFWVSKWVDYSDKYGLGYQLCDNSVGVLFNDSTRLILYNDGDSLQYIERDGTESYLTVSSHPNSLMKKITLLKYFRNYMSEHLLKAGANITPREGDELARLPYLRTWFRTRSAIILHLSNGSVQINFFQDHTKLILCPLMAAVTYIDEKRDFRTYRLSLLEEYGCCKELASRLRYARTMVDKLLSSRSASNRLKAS
# In all, about 360,000 compounds went through this assay and about 10,000 (2.8%) were called active. The shares of active, inactive and inconclusive entries below differ from those in the screen. The call rests on the fitted dose curve; in most records, active means well fitted inhibition curve with a large enough effect; inconclusive means small, poorly fitted or top-dose-only effect; inactive means flat fitted curve, though single readings scatter. Where the call is inconclusive, the potency comes from a doubtful curve fit.
# Target: Serine/threonine-protein kinase PLK1 (Homo sapiens) (UniProt P53350)
# Test: qHTS for Inhibitors of PLK1-PDB (polo-like kinase 1 - polo-box domain): Primary Screen; further: nearly all actives have a fitted effect of over 65% in size; on max response, negative = inhibition: series mostly up to about 57 µM
# Settings: Plk1 PBD binding of FITC phosphopeptide, fluorescence polarization
# On the % scale 0 is the no-effect control and ±100 the full control effect; potency means the concentration at half of the fitted maximal effect.
SMILES,Potency,"max response, negative = inhibition"
COc1ccc(NC(=O)CCCn2cnc3ccccc3c2=O)cc1,"inconclusive: 9.47 µM [inhibitor, partial curve]",
CC(C)c1nc(SCC(=O)c2ccc(F)cc2)c2ccccc2n1,,inconclusive: -30.1% [inhibitor]
O=C(Nc1ccc(S(=O)(=O)Nc2nccs2)cc1)/C(=C/c1ccccc1Cl)NC(=O)c1ccccc1,"inconclusive: 37.7 µM [inhibitor, single point]",
Cc1ccc(Cc2c(-c3ccc(Cl)cc3)nc3cc(C)c(Br)c(C)n23)cc1,"inconclusive: 29.9 µM [inhibitor, single point]",
CCOC(=O)C1=C(C)N(C)C(=O)NC1c1c(C)nn(-c2ccc(C)cc2)c1Cl (stereo unspecified),,inactive: 0.572%
COc1ccc(Sc2nc(-c3ccccc3)ncc2C(=O)O)cc1,"inconclusive: 18.9 µM [inhibitor, partial curve]",
Cc1ccc(N(Cc2cc3cccc(C)c3[nH]c2=O)S(=O)(=O)c2ccccc2)c(C)c1,active: 15 µM,
CCCCCCCCNC(=O)/C(C#N)=C/c1ccccc1[N+](=O)[O-],,inconclusive: -30.9% [inhibitor]
Cc1ccc(C)c(S(=O)(=O)Nc2cc(SCC(=O)O)c(O)c3ccccc23)c1,active: 1.5 µM,
COCCCNC(=O)C1Cc2cc(S(=O)(=O)N3CCCC3)ccc2N1C(C)=O (stereo unspecified),active: 21.2 µM,
O=S(=O)(c1ccccc1)c1nc(-c2cccc(Cl)c2)oc1N1CCOCC1,,inactive: -11.7%
CCOC(=O)C1CCCN(C(=O)c2cc(-c3ccco3)nc3ccccc23)C1 (stereo unspecified),"inconclusive: 16.8 µM [inhibitor, partial curve]",
Cc1cc(NS(=O)(=O)c2ccc(NC(=O)CSc3nc4sc(C(=O)O)c(C)c4c(=O)[nH]3)cc2)no1,active: 26.7 µM,
S=C1NC(c2ccccc2)N2C(=S)NC(c3ccccc3)N12 (stereo unspecified),"inconclusive: 4.74 µM [inhibitor, single point]",
CCCCNC(=O)C1CCN(C/C(C)=C/c2ccccc2)CC1,"inconclusive: 26.7 µM [inhibitor, single point]",
O=C(COC(=O)c1ccc(Cl)nc1)Nc1cc(S(=O)(=O)N2CCOCC2)ccc1Cl,,inactive: -1.49%
CCCCCn1nnnc1-c1nc2cc3ccccc3cc2[nH]c1=O,,inactive: -6.28%
C=CCNC(=S)NS(=O)(=O)c1cccs1,"inconclusive: 8.44 µM [inhibitor, full curve]",
CCNC(=S)NS(=O)(=O)c1ccccc1,"inconclusive: 29.9 µM [inhibitor, single point]",
CC1(C)CC(=O)C(C=NCCN2CCN(C(=O)c3ccc(F)cc3)CC2)=C(O)C1,"inconclusive: 23.8 µM [inhibitor, partial curve]",
COc1ccc(C(=O)Nn2cnc3scc(-c4cccs4)c3c2=O)c(O)c1,"inconclusive: 21.2 µM [inhibitor, single point]",
COc1ccc(N2CC(C(=O)Nc3nnc(SCCC4OCCO4)s3)CC2=O)cc1 (stereo unspecified),"inconclusive: 26.7 µM [inhibitor, single point]",
O=C1CCCc2c1nc(-c1ccc([N+](=O)[O-])cc1)n2O,,inactive: 4.26%
CCC(C)n1nnc2c(=O)oc3ccccc3c21 (stereo unspecified),,inactive: 1.39%

SMILES,Potency,"max response, negative = inhibition"
C=CCSC1=N/C(=C\c2cc(OCC)c(OC(C)=O)c([N+](=O)[O-])c2)C(=O)S1,,inactive: -26.5%
O=C(c1ccco1)N1CCN(C(=O)c2cc3cc([N+](=O)[O-])ccc3oc2=O)CC1,"inconclusive: 21.2 µM [inhibitor, single point]",
CC(C)CN1C(=O)/C(=C(/C#N)C(=O)NC2CCCCC2)c2ccccc21,"inconclusive: 13.4 µM [inhibitor, partial curve, poor fit]",
O=C1/C(=C/c2cccc(Br)c2)SC(=S)N1/N=C/c1cc([N+](=O)[O-])ccc1O,active: 18.9 µM,
CC(=O)Nc1ccc(SCC(=O)c2cc(C)n(C)c2C)cc1,"inconclusive: 29.9 µM [inhibitor, single point]",
COc1cc(/C=C2\SC(=S)N(CCC(=O)Nc3ccc(O)cc3)C2=O)cc(OC)c1OC,active: 29.9 µM,
O=C1/C(=C/N(C(=O)c2ccco2)c2ccc(Cl)cc2)Sc2ccccc21,,inconclusive: -30% [inhibitor]
COc1ccc(NC(=O)CN(C)C(=O)CSc2ccc(Br)cc2)cc1,,inconclusive: -35.9% [inhibitor]
CC(C)CC(=O)Nc1cccc(-c2nc3ccccc3[nH]2)c1,active: 26.7 µM,
CC(=O)NC(=S)NNC(=O)COc1ccc(Br)cc1,active: 26.7 µM,
O=C(N/N=C/c1ccccn1)c1ccc(N/N=C/c2ccccn2)cc1,,inactive: 0.656%
Cc1cc(Nc2ccccc2)nc(NCc2ccccc2)n1,,inactive: -5.17%
O=C(COc1ccc([N+](=O)[O-])cc1Cl)N1CCOCC1,,inactive: 1.8%
O=C(N[C@@H](Cc1ccccc1)C(=O)CCl)OCc1ccccc1,active: 29.9 µM,
C=C(C)C(=O)Nc1nnc(-c2ccccc2C)s1,,inactive: -7.81%
O=C(c1cc2cc(Cl)ccc2[nH]1)N1CCN(C(=O)c2ccco2)CC1,,inactive: -23.5%
CC[C@]12c3[nH]c4cc(-c5ccco5)ccc4c3CCN1C(=O)[C@@H](CC(=O)NCCCOC)C[C@@H]2C(=O)N1CCN(C(=O)C2CC2)CC1,,inactive: -18%
CCCc1cc(=O)[nH]c(SCC(=O)Nc2sc3c(c2C#N)CCCC3)n1,"inconclusive: 29.9 µM [inhibitor, partial curve]",
CN1CCN(c2cc3c(c4c2[nH]c2ccccc24)C(=O)CC(C)(C)C3)CC1,,inactive: -8.09%
COc1cc(S(=O)(=O)NCc2ccncc2)c(OC)cc1Cl,"inconclusive: 18.9 µM [inhibitor, partial curve]",
CCN(CC)CCN1C(=O)C2C3c4ccccc4C(c4ccccc43)C2C1=O (stereo unspecified),"inconclusive: 26.7 µM [inhibitor, partial curve]",
CCn1c(-c2ccccc2)c(C(=O)CCl)c2ccccc21,"inconclusive: 11.9 µM [inhibitor, partial curve]",
O=C(Cc1cccc2ccccc12)NC(=S)Nc1cccc(C(=O)O)c1,"inconclusive: 23.8 µM [inhibitor, partial curve]",
O=C1C(N2CCOCC2)=Cc2cccc3cccc1c23,"inconclusive: 33.6 µM [inhibitor, partial curve]",

# Looked up by compound from above (3):
SMILES,Potency,"max response, negative = inhibition"
O=C(N/N=C/c1ccccn1)c1ccc(N/N=C/c2ccccn2)cc1,,inactive: 0.656%
CC(=O)NC(=S)NNC(=O)COc1ccc(Br)cc1,active: 26.7 µM,
CC(=O)Nc1ccc(SCC(=O)c2cc(C)n(C)c2C)cc1,"inconclusive: 29.9 µM [inhibitor, single point]",

# More entries follow.

SMILES,Potency,"max response, negative = inhibition"
COc1ccccc1NC(=O)COc1ccc(C(F)(F)F)cc1[N+](=O)[O-],active: 26.7 µM,
COc1ccc(CC(=O)N2CCN(C(=O)Cc3ccc(OC)cc3)CC2)cc1,"inconclusive: 29.9 µM [inhibitor, single point]",
Cc1[nH]c(C)c(S(=O)(=O)NCCc2ccccc2)c1C(=O)N1CCCCC1,"inconclusive: 23.8 µM [inhibitor, partial curve]",
C=CCNc1nc2c3ccccc3n(C(C)=O)c2s1,active: 26.7 µM,
Cc1ccc(S(=O)(=O)N2[C@@H](c3cccc(Cl)c3)C(C(=O)O)=CC[C@H]2c2cccc(C)c2)cc1,"inconclusive: 37.7 µM [inhibitor, partial curve]",
COc1cc(/C=C2/S/C(=N/S(=O)(=O)c3ccccc3)NC2=O)c([N+](=O)[O-])cc1OC,active: 26.7 µM,
COc1ccc(S(=O)(=O)N2CCOCC2)cc1NC(=O)CSc1ccccc1,"inconclusive: 29.9 µM [inhibitor, single point]",
CC1=C(C#N)C(/C=N/OCc2ccc(F)cc2Cl)CC(=O)N1 (stereo unspecified),active: 29.9 µM,
COc1cc(CNCCc2ccccc2F)ccc1OCc1ccc(Cl)nc1,,inactive: 0.705%
O=c1c(C(c2ccccc2)c2c(O)nc3n(c2=O)CCCS3)c(O)nc2n1CCCS2,"inconclusive: 29.9 µM [inhibitor, partial curve]",
CCOc1ccc(NC(=O)/C(C=Nc2ccccc2)=C(\C)O)cc1,"inconclusive: 26.7 µM [inhibitor, partial curve]",
O=C(O)c1cc(-c2ccc(/C=N/Nc3ccc([N+](=O)[O-])cn3)o2)ccc1Cl,"inconclusive: 16.8 µM [inhibitor, partial curve]",
COc1ccc(C(=O)NCCCNC(=O)c2ccccn2)cc1,,inactive: 0.545%
N#CC1=C(Nc2ccccc2)SC=C(c2ccc(Br)cc2)N=C1N1CCOCC1,"inconclusive: 29.9 µM [inhibitor, partial curve]",
CCOc1cccc(C(=O)NC(=S)Nc2ccc(Cl)cc2C(=O)O)c1,active: 5.32 µM,
O=C([C@H]1O[C@@H](n2ccc(=O)[nH]c2=O)[C@H](O)[C@@H]1O)N1CCN(c2ccc(Cl)cn2)CC1,,inactive: -13.7%
O=C(CN(Cc1ccccc1)C1=NCCS1)c1ccc(Cl)cc1,,inconclusive: -34.9% [inhibitor]
CCC(C)n1c(/C=C/c2ccccc2)nc2ccccc21 (stereo unspecified),"inconclusive: 21.2 µM [inhibitor, single point]",
COc1ccc(NC(=O)CSc2ccc3c4c(cccc24)C(=O)c2ccccc2-3)cc1,"inconclusive: 16.8 µM [inhibitor, partial curve]",
O=C(Oc1ccc(=O)n(-c2ccccc2)n1)c1ccc(F)cc1,"inconclusive: 23.8 µM [inhibitor, partial curve]",
Cc1ccc(NC(=O)CN2C(=O)S/C(=C\c3ccc(-c4cccc(C(=O)O)c4C)o3)C2=O)cc1C,active: 18.9 µM,
O=C(CC1C(=O)NCCN1Cc1c(F)cccc1Cl)NC1CCCC1 (stereo unspecified),,inactive: -21.7%
C=C1CN(Cc2ccccc2)S(=O)(=O)c2ccccc21,,inactive: -8.43%
